In publication PMC8440562, “MAD2L2 dimerization and TRIP13 control shieldin activity in DNA repair” (Nature Communications, 2021):
Results are given in words; binding and its absence hold for the method and conditions named. Binding can be weak; no strength is given. For part of these data: Sequences can lack the tags named with a protein.

B1: His6-EGFP-TRIP13^E253Q (enzyme, human, UniProt Q15645 1-432, looked up)
chain: MDEAVGDLKQALPCVAESPTVHVEVHQRGSSTAKKEDINLSVRKLLNRHNIVFGDYTWTEFDEPFLTRNVQSVSIIDTELKVKDSQPIDLSACTVALHIFQLNEDGPSSENLEEETENIIAANHWVLPAAEFHGLWDSLVYDVEVKSHLLDYVMTTLLFSDKNVNSNLITWNRVVLLHGPPGTGKTSLCKALAQKLTIRLSSRYRYGQLIEINSHSLFSKWFSESGKLVTKMFQKIQDLIDDKDALVFVLIDQVESLTAARNACRAGTEPSDAIRVVNAVLTQIDQIKRHSNVVILTTSNITEKIDVAFVDRADIKQYIGPPSAAAIFKIYLSCLEELMKCQIIYPRQQLLTLRELEMIGFIENNVSKLSLLLNDISRKSEGLSGRVLRKLPFLAHALYVQAPTVTIEGFLQALSLAVDKQFEERKKLAAYI
notes: TRIP13, human, with E253Q; printed mass of GFP-TRIP13 75.5 kDa; source: insect cells (Hi5, baculovirus, biGBac), purified
B2: TRIP13^E253Q (48.5 kDa form, Fig. 3f) (enzyme, human, UniProt Q15645 1-432, looked up)
chain: B1 chain
notes: TRIP13, human, with E253Q; printed mass 48.5 kDa (291 kDa for hexamer); The printed mass fits TRIP13 without the EGFP fusion; source: insect cells (Hi5, baculovirus, biGBac), purified

Key:
[1] = target: GST-tagged MAD2L2 in complex with full-length SHLD3; experiment: SEC; Superdex-200 in buffer C (25 mM Tris pH 8, 0.3 M NaCl, 10% glycerol, 0.5 mM TCEP, 10 mM MgCl2) + 0.1 mM ATP; proteins incubated 2 h on ice with 2 mM ATP before the run; equimolar in Fig. 3f; both purified
[2] = target: GST-tagged MAD2L2 in complex with full-length SHLD3; experiment: pull-down; purified proteins mixed at 6 uM in 25 mM Tris pH 8, 0.3 M NaCl, 10% glycerol, 10 mM MgCl2, 0.5 mM TCEP, 0.01% Triton-X, 3 mM ATP; glutathione agarose or amylose beads; MAD2L2 in complex with full-length SHLD3; Coomassie SDS-PAGE; both purified
[3] = target: MAD2L2-SHLD3-SHLD2^1-95 complex (human); experiment: SEC; Superdex-200 in buffer C (25 mM Tris pH 8, 0.3 M NaCl, 10% glycerol, 0.5 mM TCEP, 10 mM MgCl2) + 0.1 mM ATP; proteins incubated 2 h on ice with 2 mM ATP before the run; equimolar in Fig. 3f; both purified

| Binder | binding [1] | binding [2] | binding [3] |
| --- | --- | --- | --- |
| B1 | binds | binds |  |
| B2 |  |  | binds |
